These are yes or no findings as the source states them, for the method shown.
Molecular target: Deformed (D. melanogaster) (UniProt P07548)
Test: native gel or EMSA; translation lysates with Dfd protein and with a co-regulatory factor on conserved boxes 1 to 3 of the rpr-4S3/3' enhancer as shift probes; 1 mM ZnSO4 for Disco

Amino acid sequences for entries named in this document (tags omitted).
UniProt P07548: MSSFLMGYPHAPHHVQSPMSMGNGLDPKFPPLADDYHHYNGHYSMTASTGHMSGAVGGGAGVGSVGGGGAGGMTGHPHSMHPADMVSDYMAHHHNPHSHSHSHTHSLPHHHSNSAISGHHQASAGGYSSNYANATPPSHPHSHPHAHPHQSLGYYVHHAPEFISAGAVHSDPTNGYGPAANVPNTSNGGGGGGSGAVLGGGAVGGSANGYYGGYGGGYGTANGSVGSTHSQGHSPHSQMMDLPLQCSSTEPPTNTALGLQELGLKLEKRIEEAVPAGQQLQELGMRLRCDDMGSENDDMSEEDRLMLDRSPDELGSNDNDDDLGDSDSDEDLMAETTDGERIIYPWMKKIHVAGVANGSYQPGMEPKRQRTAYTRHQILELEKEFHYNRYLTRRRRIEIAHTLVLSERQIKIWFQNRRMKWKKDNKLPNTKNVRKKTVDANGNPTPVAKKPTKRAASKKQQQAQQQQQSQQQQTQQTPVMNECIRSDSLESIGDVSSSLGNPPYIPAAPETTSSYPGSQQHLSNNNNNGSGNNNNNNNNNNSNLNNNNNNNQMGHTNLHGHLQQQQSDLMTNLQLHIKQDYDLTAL

Binder | binding
Empty spiracles (protein, UniProt P18488 1-494) MTKMIPPVPTAAAAVMMPTPKQKIGFSIESIVGNDVSTAGGNSTPDLSGPQSPPPGERNVPGSPPQTPPATLTLIPGSPPHHLMAPPAHGLPYPHPHAQQQHLQAPHPHPHLSPAQQHVLHQHLLMQQQHPGTPKSHQDIQELLQRLHHNAAMASGLSPLQTRLSPETEQPQMAVSLKRERSPAPPAMEQAENPAQRIQPPHTPPKSVSPQSSQPSSSPTLLISSPHATPPQQQQQQPPPNYPKPAMMHPGGAGPMMMPGMPPAGLVRPFPMGPGGPPMPQGQPGLPDIKALPPYINAPPELPPQHNPHLIAAAQFQMAAALQAGHVLGPAAAAAAAAGLPPHAAQFMPNPGMARDSYQLYPWLLSRHGRIFPHRFPGSFLVPPFRKPKRIRTAFSPSQLLKLEHAFESNQYVVGAERKALAQNLNLSETQVKVWFQNRRTKHKRMQQEDEKGGEGGSQRNMHNGSGDEDDDELIDMEMDECPSDEEHELDASH | no binding
Engrailed (protein, UniProt P02836 1-552) MALEDRCSPQSAPSPITLQMQHLHHQQQQQQQQQQQMQHLHQLQQLQQLHQQQLAAGVFHHPAMAFDAAAAAAAAAAAAAAHAHAAALQQRLSGSGSPASCSTPASSTPLTIKEEESDSVIGDMSFHNQTHTTNEEEEAEEDDDIDVDVDDTSAGGRLPPPAHQQQSTAKPSLAFSISNILSDRFGDVQKPGKSMENQASIFRPFEASRSQTATPSAFTRVDLLEFSRQQQAAAAAATAAMMLERANFLNCFNPAAYPRIHEEIVQSRLRRSAANAVIPPPMSSKMSDANPEKSALGSLCKAVSQIGQPAAPTMTQPPLSSSASSLASPPPASNASTISSTSSVATSSSSSSSGCSSAASSLNSSPSSRLGASGSGVNASSPQPQPIPPPSAVSRDSGMESSDDTRSETGSTTTEGGKNEMWPAWVYCTRYSDRPSSGPRYRRPKQPKDKTNDEKRPRTAFSSEQLARLKREFNENRYLTERRRQQLSSELGLNEAQIKIWFQNKRAKIKKSTGSKNPLALQLMAQGLYNHTTVPLTKEEEELEMRMNGQIP | no binding
Sloppy paired 1 (protein, UniProt P32030 1-322) MVKSEMEFKSNFSIDAILAKKPINTATQPIKTEPVHHHHQYVHPYSNSDGELSASEDFDSPSRTSTPMSSAAESLSSQNNDKLDVEFDDELEDQLDEDQESEDGNPSKKQKMTAGSDTKKPPYSYNALIMMAIQDSPEQRLTLNGIYQYLINRFPYFKANKRGWQNSIRHNLSLNKCFTKIPRSYDDPGKGNYWILDPSAEEVFIGETTGKLRRKNPGASRTRLAAYRQAIFSPMMAASPYGAPASSYGYPAVPFAAAAAAALYQRMNPAAYQAAYQQMQYQQAPQAHHHQAPHPAQMQGYPQQLNAELFQRMQFFGKFPSS | no binding
Brinker (protein, UniProt Q9XTN4 1-704) MDSSSEQLNGSGALNFKRPKDSSENATNSHTNNGNSSGSPKMGSRRIFTPHFKLQVLESYRNDNDCKGNQRATARKYNIHRRQIQKWLQCESNLRSSVANNQQQQQQQQQQQQQQQQQQQLLPQQSVSPTPAVKVFHQLSHPLVHQLHHHHAAAVGHHHHHAAHHHAAHHHHAAAAAAAAAAAAAAAAAHHHAAHHLLAANGMVPHPLAAHPHLHVPVAMHPQMQHQKEQQQQQQQLQQEQQQQDQQQSQQETPATIATNGSNQGSSNVLSAAKIAAVVAAAMATSNGNPTPTATIPASSSSSSNTLPSSNNSSCHNSSSSSNSCNSNQVPIQVPILSGSPGSTSSASHIPHVPFAYHHNLHGYLENRLEAVATPAPMDLSLGSSARRQMQLHEKDPSGVDLTFRKRKVITSPMQPDKISKLEEVIKKEPETETENEDVEVDVETEQPEEHKLPSKQVKLFKPYLLDDDEEQDHHHHHHHHRQEDLDEGAAEEEQDDEEESRYADDDEVDSKEAADKKQRRLKKKPSAINEQREPIIWSNHPYPGGCVSPGSSITSSFQCPTSMQQQQTFPVAGGSPNQQFQDNCSSSKATTPLSPFSAPALSPTGFCCPKGSPVSGYESSSSTYSDSGSNYSLNLQLHAVYNDNLMYMQQQQQQQQQQHHLQHQQHLQRWLDQESLATARTSSVNRPLILVADTAPTNLTLVA | no binding
